# Among all 140,000 compounds or so, about 4,300 (3.1%) were called active. Inconclusive means that the source gave no clear call. Such entries were picked first, then a sample of the others.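 The calls were made as follows: active = readout at or below -70, meaning at least 70% loss of cells showing the perinucleolar compartment, a nuclear body marking cancer cells; inconclusive = readout between -30 and a set limit; inactive = the rest.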
# Assay: High Content Assay for Compounds that inhibit the Assembly of the Perinucleolar Compartment;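 also: plate controls were DMSO wells for no effect and camptothecin positive control wells for full effect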
# Details: PC3M PTB-GFP, PNC prevalence imaging, 16 h; at 10 µM; hits give low values
# In short: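 PC3M cells stably expressing PTB-GFP, 750–1000 cells/well, treated 16 h at 37 °C with compound (23 nl of library stock), in duplicate. After paraformaldehyde fixation and Hoechst stain, imaged at 20x; PNC prevalence scored by image analysis.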
row,SMILES,"activity change (PNC), negative = inhibition"
1,CCCOc1ccc(C(=O)N2CCCc3ccccc32)cc1,inconclusive: -38.6%
2,O=C(N/N=C/c1cc(Cl)ccc1O)C(=O)Nc1ccccc1OC(F)(F)C(F)F,active: -90.2%
3,C#CCOc1c(Cl)cc(/C=N/O)cc1OC,inconclusive: -36.7%
4,CC1(C)Cc2c(c(-c3ccccc3)nc(N3CCCC3)c2C(N)=O)CO1,inconclusive: -63.2%
5,S=C(c1ccc(-c2ccc(Cl)c(Cl)c2)o1)N1CCOCC1,inactive: 4.8%
6,Cc1nc(=O)c(-c2ccccc2)c(C)n1-c1ccccc1C(=O)O,inconclusive: -50.3%
7,Cc1cc(C)n2cc(CSC3=NCCS3)nc2n1,inconclusive: -46.4%
8,O=C(CN1C(=O)NC2(CCCCCC2)C1=O)Nc1ccc(S(=O)(=O)N2CCOCC2)cc1,inconclusive: -35.5%
9,O=C(Cc1ccccc1)Nc1ccc2oc(-c3cccnc3)nc2c1,inconclusive: -45.6%
10,CC(NC(=O)C1CCCO1)c1ccccc1 (centres undefined),inactive: -24.4%
11,NNC(=O)c1ccncc1,inactive: 17.1%
12,CN(Cc1nc(-c2cccnc2)no1)S(=O)(=O)c1ccccc1,inconclusive: -65.1%
13,COc1ccccc1C(c1nnnn1C(C)(C)C)N1CCN(C(=O)c2ccco2)CC1 (centres undefined),inactive: -11.7%
14,NCCCNC(=O)c1cc2ccccc2[nH]1,inconclusive: -46.1%
15,COc1ccccc1/C=C1\SC(=O)N(CCC(=O)NNC(=O)c2ccccc2Cl)C1=O,active: -92.6%
16,COC(=O)c1ccccc1NC1=C/C(=N\S(=O)(=O)c2cccs2)c2ccccc2C1=O,inactive: -22.2%
17,O=C(CCN1C(=O)C2CC=C(Cl)CC2C1=O)NCc1ccccc1 (centres undefined),inactive: 0.867%
18,CCOC(=O)N1CCN(S(=O)(=O)c2ccc3c(c2)oc(=O)n3C)CC1,active: -80.5%
19,CCSc1nnc(NC(=O)c2ccc3c(c2)OCO3)s1,inconclusive: -36%
20,O=C(NC(=S)N1CCOCC1)C12CC3CCC(CC(C3)C1)C2,inactive: -4.04%

row,SMILES,"activity change (PNC), negative = inhibition"
1,O=C(NCCCN1CCN(CCCNC(=O)c2ccc3c(c2)OCO3)CC1)c1ccc2c(c1)OCO2,inactive: -2.86%
2,COc1ccc(CC(=O)O/N=C(\N)Cc2cccc3ccccc23)cc1OC,inactive: 23.3%
3,O=C(NC(NC(=S)Nc1ccccc1C(=O)O)C(Cl)(Cl)Cl)c1ccco1 (centres undefined),inconclusive: -70.2%
4,O=C(/C=N/O)NCC1CCNCC1,inactive: 10.5%
5,O=C(NCc1ccco1)Nc1ccc2nsnc2c1,inconclusive: -73.9%
6,Brc1ccc2c(c1)C(C1=NCCN1)c1ccccc1CS2 (centres undefined),active: -109%
7,CCOCN(C(=O)Cn1c(C(C)O)nc2ccccc21)c1c(C)cccc1CC (centres undefined),inconclusive: -55%
8,Cc1ccc(-c2cc(C(F)(F)F)n3ncc(C(=O)N4CCCc5ccccc54)c3n2)cc1,active: -100%
9,Cc1ccc(-n2[nH]c(C)c(C=Nc3ccc4[nH]c(=O)[nH]c4c3)c2=O)cc1,inactive: 60%
10,O=C(/C=N/O)Nc1ccccc1C(=O)O,inconclusive: -44.4%
11,O=C(NCC1CCCO1)c1ccc2nc(N3CCCCC3)sc2c1 (centres undefined),inactive: 86.4%
12,COc1cc2c(cc1NC(=O)CC1SC(N3CCCC3)=NC1=O)oc1ccccc12 (centres undefined),inactive: 1.95%
13,COc1ccc(/C=N/NC(=O)CN2CCSCC2)c(OC)c1,inconclusive: -39.2%
14,CN(c1ccc(C(=O)NCCSCc2ccco2)cc1)S(C)(=O)=O,inconclusive: -73.2%
15,O=c1cc(CO)oc(CN2CCN(c3cccc(C(F)(F)F)c3)CC2)c1O,inconclusive: -41.7%
16,CC(Cc1cccs1)NC(=O)Nc1ccccc1 (centres undefined),inconclusive: -61.3%
17,Cc1ccccc1NC(=S)N(CCCN1CCCCC1)Cc1ccco1,inconclusive: -68%
18,COc1cccc(N2CCN(C(=S)NCCc3ccccc3)CC2)c1,active: -91.6%
19,Cc1ccccc1NC(=S)NCc1cccs1,inconclusive: -53%
20,Cc1cccc2c1CC(C)(C)NC2=C(C#N)C#N,inactive: -15.1%

row,SMILES,"activity change (PNC), negative = inhibition"
1,Cc1cc(C)cc(N2C(=O)c3nccnc3C2=O)c1,inconclusive: -40.7%
2,CCOc1ccc(C(C)=O)cc1N1C(=O)C2C3C=CC(C3=C(C)C)C2C1=O (centres undefined),inconclusive: -40.1%
3,C=CCSc1nnc2nc3c(nn12)c1cc(C)ccc1n3CC=C,inconclusive: -34.9%
4,c1ccc(-c2nn3c(Cn4nnc5ccccc54)nnc3s2)nc1,inconclusive: -61.4%
5,CC1CC(C)CN(C(=O)CSc2nnc(CSc3ncccn3)n2C)C1 (centres undefined),inconclusive: -34.1%
6,c1cc2c(cc1Nc1nc(-c3ccc4c(c3)OCO4)cs1)OCCO2,inconclusive: -62.2%
7,O=C(COC(=O)CCCN1C(=O)c2cccc3cccc(c23)C1=O)Nc1cccc(C(F)(F)F)c1,active: -106%
8,O=C1Nc2ccc(S(=O)(=O)NCCC3=CCCCC3)c3cccc1c23,inconclusive: -52.1%
9,CC(=O)N1N=C(c2ccccc2)CC1c1ccccc1[N+](=O)[O-] (centres undefined),inconclusive: -55.9%
10,O=C(Cn1cc(/C=N/NC(=O)c2ccccc2Br)c2ccccc21)Nc1ccc(F)cc1,inactive: 16.9%
11,O=C(Nc1ncc(Cc2cccc(Cl)c2)s1)C1=NCCN1,inactive: 45.9%
12,Cc1nn(-c2ccccc2)c2c1C1(C(=O)N(C)c3ccccc31)C(C#N)=C(N)O2 (centres undefined),inconclusive: -35.6%
13,C=CCn1c(SCC(=O)NC(=O)c2cccc([N+](=O)[O-])c2)nnc1-c1ccccc1F,inactive: 44.4%
14,O=C(Nc1cccc(Cl)c1)OCc1cn(-c2ccc(Cl)cc2)nn1,inconclusive: -35.4%
15,CCOC(=O)N1CCC(N2C(=O)c3ccccc3C2=O)CC1,inconclusive: -30.9%
16,Cc1ccc(-c2nnn(CC(=O)N(Cc3cccs3)C(C(=O)NC(C)(C)C)c3ccc(C)o3)n2)o1 (centres undefined),inactive: 29.5%
17,COc1ccc(NC(=O)c2ccco2)cc1NC(=O)c1cccnc1,inconclusive: -43.7%
18,CCOc1cc(S(=O)(=O)n2cc(-c3ccc(F)cc3)c(N)n2)cc(OCC)c1OCC,inconclusive: -42.9%
19,Cc1c(F)cccc1NC(=O)CSCC(=O)Nc1ccccc1,inactive: 31.8%

# Of the compounds above, these have a thiophene ring, fused or not.
row,SMILES,"activity change (PNC), negative = inhibition"
16,COC(=O)c1ccccc1NC1=C/C(=N\S(=O)(=O)c2cccs2)c2ccccc2C1=O,inactive: -22.2%
16,CC(Cc1cccs1)NC(=O)Nc1ccccc1 (centres undefined),inconclusive: -61.3%
19,Cc1ccccc1NC(=S)NCc1cccs1,inconclusive: -53%
16,Cc1ccc(-c2nnn(CC(=O)N(Cc3cccs3)C(C(=O)NC(C)(C)C)c3ccc(C)o3)n2)o1 (centres undefined),inactive: 29.5%
